Experimental data taken from the supplement of paper PMC3334620.
Over roughly 33,000 sequences, “E-score (-0.5 to 0.5)” has its median near -0.0014; the highest 2% begin near 0.25. The list shows a part of the results.

What follows are sequences tested against T1, Cad1 (UniProt P24813) (assay: PBM E-score (8-mer binding enrichment) (E-score (-0.5 to 0.5)); higher = stronger / more preferred TF binding). Details: protein concentration: 100 nM; construct: GST-full length.
T1 sequence: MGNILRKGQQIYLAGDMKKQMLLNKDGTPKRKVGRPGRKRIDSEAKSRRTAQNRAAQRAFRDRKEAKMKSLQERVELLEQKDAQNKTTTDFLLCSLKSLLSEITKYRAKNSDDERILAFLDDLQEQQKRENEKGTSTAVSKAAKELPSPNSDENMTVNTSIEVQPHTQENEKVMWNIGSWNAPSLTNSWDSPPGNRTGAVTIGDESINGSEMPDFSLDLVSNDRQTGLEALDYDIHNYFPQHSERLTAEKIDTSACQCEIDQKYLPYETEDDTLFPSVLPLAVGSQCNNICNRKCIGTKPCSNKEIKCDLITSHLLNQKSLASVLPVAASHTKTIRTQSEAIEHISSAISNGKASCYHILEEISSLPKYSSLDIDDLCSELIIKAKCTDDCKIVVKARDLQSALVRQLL
In short: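 Universal all-10-mer Agilent arrays, double-stranded by primer extension on fresh or once-stripped slides, were probed with about 100-200 nM GST-tagged yeast transcription factors made by PURExpress. Fluorescent anti-GST detected bound protein, and masliner normalised the scans. E-scores from the Universal PBM Analysis Suite were given to each ungapped eight-base word pooled with its reverse complement.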

| Sequence | PBM E-score |
| --- | --- |
| CTGATGAC | 0.123 |
| CAGATTCC | -0.0427 |
| CCGTTAGC | 0.0174 |
| CGCTAATC | 0.113 |
| AACCTCCC | -0.194 |
| CGGTGATA | 0.125 |
| GGAATTTA | 0.167 |
| AAGCAACT | 0.136 |
| CTATCGCC | -0.128 |
| AAAAAACG | 0.241 |
| CGCTTCAG | -0.0196 |
| CGAGGTAG | -0.125 |
| AACCTGAG | -0.261 |
| CTCAACGC | -0.0802 |
| AAATGACG | 0.0367 |
| GCACCTCA | 0.0626 |
| CATCTTAA | -0.0291 |
| AAGGGAGG | -0.154 |
| AAGGCGGA | -0.0482 |
| CGTCGACG | 0.103 |
| GTAGTTGA | 0.0726 |
| ACAACCCA | 0.0591 |
| AGTGCATC | -0.0329 |
| ATGATGAG | 0.0176 |
| CAGCACGC | 0.0316 |

| Sequence | PBM E-score |
| --- | --- |
| CGCACCCA | -0.105 |
| GTCTACTA | -0.0066 |
| ACAACGGC | 0.0114 |
| CCAGGATA | 0.0619 |
| CATGCGGA | -0.13 |
| ACACACAG | 0.066 |
| AGTGCACC | 0.148 |
| ACGTTATA | 0.216 |
| ACGGCGCA | 0.0369 |
| CGAAAGAC | 0.00341 |
| GGTGTAAC | 0.0874 |
| ATCCCACA | -0.136 |
| ATTCAGCC | -0.121 |
| ACGGGGTC | -0.243 |
| CTTTTACA | 0.159 |
| CATTAGTC | 0.217 |
| ACCGTTGG | -0.166 |
| ACATGAGG | -0.229 |
| GAATATGA | 0.00944 |
| AGGGTCTA | -0.0909 |
| GCAGGCCA | 0.125 |
| ATGCACGG | -0.0947 |
| CCCACGGC | -0.117 |
| CCCAAACG | -0.182 |
| GAAAGAGC | -0.0569 |

| Sequence | PBM E-score |
| --- | --- |
| GGCGCTCA | 0.149 |
| CTAACAGA | 0.129 |
| CACCCGAG | 0.00242 |
| ACTTGGCT | -0.0387 |
| AGCTATTC | -0.215 |
| ACAACAAT | 0.0253 |
| ATGCAGTC | 0.0484 |
| GATCTCCC | -0.121 |
| CCCAAGAG | -0.132 |
| AGGGCACC | -0.257 |
| AGAAGCCG | 0.0307 |
| AGCTCCTG | -0.254 |
| AATAAAGG | -0.164 |
| TGAGTTAA | -0.0473 |
| GGTGAAAA | 0.0946 |
| CGCAGAGA | 0.0335 |
| AATAAATA | 0.313 |
| GTGGTGTA | -0.0273 |
| AGCGACTC | -0.00582 |
| GCTAGTCA | -0.0828 |
| CAAAATAG | -0.0227 |
| AGCATGGA | -0.216 |
| AGCGACAG | 0.0726 |
| TGAATACA | 0.0483 |
| CATCAAGA | 0.0115 |

| Sequence | PBM E-score |
| --- | --- |
| AACGTAAC | -0.00693 |
| AAAAGTCT | -0.0292 |
| CAGGGCAA | 0.11 |
| AGTCAACA | 0.136 |
| AAGTCGTA | -0.0848 |
| ATATATCG | 0.227 |
| GGGGGCAA | -0.332 |
| ACTCCCTG | -0.0969 |
| CAGACCTC | 0.0236 |
| CCGAGTAC | -0.0521 |
| CCTATAAC | -0.06 |
| TACGGCGA | 0.0897 |
| GTACAATA | 0.148 |
| GGCGGCGA | -0.0215 |
| AGAGCATC | -0.116 |
| TAAGGGAA | -0.058 |
| CATCCGGC | -0.0303 |
| TTAAAGAA | 0.0615 |
| ATTAGATG | 0.263 |
| CATTCAAC | -0.00191 |
| CAAATAAG | 0.0237 |
| AGTAACTA | 0.11 |
| CGTTATAC | -0.0845 |
| CCTCGGCC | 0.0888 |
| ACACCCAC | 0.051 |

| Sequence | PBM E-score |
| --- | --- |
| CAGTAATG | 0.0464 |
| CTTAGTCC | -0.0572 |
| TCACTAGA | 0.088 |
| TACCGCTA | -0.0629 |
| TAGCCGAA | -0.0837 |
| CGTGTGGA | -0.0339 |
| AGACACTC | 0.013 |
| AGAACCGC | 0.162 |
| ACTTCAAC | 0.0624 |
| AAAAACTA | 0.0962 |
| GAGACACA | 0.119 |
| ATACTCTA | -0.0262 |
| GTCGCCGA | -0.00147 |
| GCAGTAAC | -0.113 |
| AACCCGTC | -0.171 |
| AAAGATAC | -0.051 |
| AGAGGGGC | -0.238 |
| AATCACCC | 0.0133 |
| GCTGTAAC | 0.0215 |
| AAGGCAAC | 0.0609 |
| CAGATTTA | 0.109 |
| ACGGGACA | -0.184 |
| AAGGTCGC | -0.0798 |
| ACAGATCT | 0.182 |
| CTATTCAG | 0.0439 |

Quoted from the listing:
TGAGTTAA | PBM E-score: -0.0473
TACCGCTA | PBM E-score: -0.0629

Later entries:

| Sequence | PBM E-score |
| --- | --- |
| ACCGCCTC | -0.304 |
| ATATATCA | 0.134 |
| AATTGAGG | 0.146 |
| AAGATCCT | 0.144 |
| GCCCAAGA | -0.0848 |
| AGTTGGCC | -0.13 |
| GCTTCCAC | -0.0882 |
| CGGGCGCC | 0.045 |
| ATGCCAGA | 0.102 |
| GTGCATAA | 0.0837 |
| GTGGTCCA | 0.139 |
| ACCAAACT | -0.0663 |
| ACCATGAA | 0.164 |
| GCTACAAA | 0.0933 |
| ACGTTGAA | 0.0248 |
| ATGCAACC | 0.0532 |
| TGTCAGAA | -0.00196 |
| AAGTTCGG | 0.0372 |
| AAGAGATG | -0.0245 |
| CTGGACCA | -0.0298 |
| CACTATTC | 0.184 |
| AAGGATGA | 0.00249 |
| CATGCACG | -0.086 |
| ATCGGCTC | 0.0614 |
| ACTTCGAG | 0.0357 |

| Sequence | PBM E-score |
| --- | --- |
| GGTGCCAA | -0.0965 |
| ACACTTGG | -0.082 |
| GACCTTGA | -0.0607 |
| AGACGTTA | -0.047 |
| AGGTAGGG | -0.0292 |
| AAACATCA | 0.125 |
| AGAATTCC | -0.0367 |
| CAGACGGG | -0.0911 |
| AGGATTGC | -0.0745 |
| AAATCCCG | -0.00231 |
| CAGGGATC | -0.238 |
| GACAAATA | 0.293 |
| AGGACTCG | -0.135 |
| TGATTGCA | 0.0673 |
| ACCCGCAC | 0.0284 |
| ATGAGCCA | 0.107 |
| CCCCACGC | -0.275 |
| CGCCGCTC | -0.117 |
| ATGATATC | 0.0971 |
| AAGCCCGA | -0.171 |
| CGTCTAGC | 0.0518 |
| AATAAGAC | -0.015 |
| CCCGCCTA | 0.0947 |
| GGATTAAC | 0.0685 |
| ACACAATC | 0.0563 |

| Sequence | PBM E-score |
| --- | --- |
| CGAGAATC | 0.141 |
| ATCGACCA | -0.0938 |
| AATCCAGG | -0.0298 |
| AATGCGAT | 0.0759 |
| ACAGACGA | 0.0138 |
| CGTAGTAA | 0.0258 |
| CCAAAGGC | -0.0958 |
| ACCTAGCA | -0.0189 |
| AAGATATG | 0.184 |
| GAAGGCAA | -0.0624 |
| TCCGAGCA | -0.0285 |
| CCGTCACG | -0.0805 |
| ACGTCAGC | 0.147 |
| AGCCAATC | -0.126 |
| GCTATGAC | 0.0852 |
| AGGGCCAA | -0.278 |
| GAGTGGAA | -0.152 |
| AGGAGCAA | -0.143 |
| CTAGCTCA | -0.0382 |
| AGTATGCC | 0.0361 |
| CATGGATC | -0.0634 |
| GATAGTTA | 0.0757 |
| AATTCGAA | 0.0472 |
| CTGGTCGA | -0.12 |
| GCACATAC | -0.0456 |

| Sequence | PBM E-score |
| --- | --- |
| ACGTCTCA | 0.105 |
| ACGGTTTC | 0.074 |
| GCCCGATA | 0.0695 |
| CCGCAAAG | 0.129 |
| CACGTGAG | 0.0771 |
| CGATCATA | -0.00701 |
| GAGGAAAA | 0.082 |
| AAACACTG | 0.0814 |
| AACGGTCT | -0.0284 |
| GGACGCCC | -0.167 |
| CAGGTCAA | -0.264 |
| TGGTGAAA | -0.0297 |
| AAGGTAGG | 0.0706 |
| CCAGGTCG | -0.193 |
| ACGCGCTA | 0.109 |
| ATCTGCGC | -0.0666 |
| GCATGCAA | 0.144 |
| TAAAACCA | 0.0127 |
| CTGCAGCA | 0.0924 |

Quoted at random: 7 entries already listed

| Sequence | PBM E-score |
| --- | --- |
| CTGCAGCA | 0.0924 |
| GCCCGATA | 0.0695 |
| CGATCATA | -0.00701 |
| ATCTGCGC | -0.0666 |
| CCAGGTCG | -0.193 |
| GCATGCAA | 0.144 |
| GAGGAAAA | 0.082 |
